Results are given in words; binding and its absence hold for the method and conditions named. Binding seen in cells or lysates may run through a third protein. Some binding calls cover weakened binding; strength is not graded here.
Experiments:
Panx1∆VS-EGFP (mouse) = Panx1∆VS-EGFP (mouse) (UniProt Q9JIP4); experiment: cross-linking; intact transfected HEK293T cells, 20 μg/mL cycloheximide for 8 h beforehand; 3 mM cell-impermeable BS3 in crosslinking buffer (20 mM PBS, 1 mM CaCl2, 0.5 mM MgCl2, pH 8) for 30 min on ice; lysates on 4-20% gradient SDS-PAGE, Western blot for GFP; shows surface-localized oligomers
Panx1∆379-EGFP (mouse) = Panx1∆379-EGFP (mouse) (UniProt Q9JIP4); experiment: as above

Sequences of proteins named here, by UniProt entry; tags and fusion partners are left off. A change or cut given only in a name is not applied to a line headed by its entry. A line that says so, or that is headed by a name, gives the form on record, which may keep a tag or linker. Residues count along the entry.
Panx1∆379-EGFP (Q9JIP4, residues 1-378): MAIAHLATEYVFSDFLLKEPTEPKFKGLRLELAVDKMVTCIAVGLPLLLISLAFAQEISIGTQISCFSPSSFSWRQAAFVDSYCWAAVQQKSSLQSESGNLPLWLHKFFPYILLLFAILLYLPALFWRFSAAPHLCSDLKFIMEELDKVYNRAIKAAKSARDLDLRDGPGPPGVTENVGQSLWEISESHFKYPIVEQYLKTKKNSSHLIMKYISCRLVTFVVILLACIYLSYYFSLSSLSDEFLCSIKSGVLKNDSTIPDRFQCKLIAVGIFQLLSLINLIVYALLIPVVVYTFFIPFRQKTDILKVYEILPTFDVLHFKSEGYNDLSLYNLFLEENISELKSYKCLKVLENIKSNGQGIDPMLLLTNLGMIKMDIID
Panx1∆VS-EGFP (Q9JIP4, form named): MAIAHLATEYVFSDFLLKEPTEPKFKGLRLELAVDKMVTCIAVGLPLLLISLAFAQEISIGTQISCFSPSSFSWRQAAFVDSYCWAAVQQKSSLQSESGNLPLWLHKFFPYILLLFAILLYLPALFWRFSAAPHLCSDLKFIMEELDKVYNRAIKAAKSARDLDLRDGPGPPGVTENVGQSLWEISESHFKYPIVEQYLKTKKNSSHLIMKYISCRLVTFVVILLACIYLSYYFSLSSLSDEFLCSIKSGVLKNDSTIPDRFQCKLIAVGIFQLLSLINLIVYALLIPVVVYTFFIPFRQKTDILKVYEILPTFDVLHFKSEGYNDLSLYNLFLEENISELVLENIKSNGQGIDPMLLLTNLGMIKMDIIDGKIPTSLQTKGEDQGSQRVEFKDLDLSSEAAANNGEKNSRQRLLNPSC

binding (Panx1∆VS-EGFP (mouse))	binding (Panx1∆379-EGFP (mouse))	Substance
binds		Panx1∆VS-EGFP (from UniProt Q9JIP4 1-426)
	binds	Panx1∆379-EGFP (from UniProt Q9JIP4 1-378) (domain or fragment)

Source: article PMC6611761
